# The other results are listed elsewhere or left out.
# Columns and labels:
# Assay in all cases: glycan array binding signal (z-score within array); higher = stronger binding
# Conditions in all cases: glycan notation: IUPAC condensed, linker removed
# [1] = biological target: Neu5Ac(a2-6)Gal
# In short: (§1)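 From the Consortium for Functional Glycomics database, 3228 arrays were curated, keeping only those whose protein sequence was available. Binding is given as a within-array Z-score averaged across arrays sharing a protein sequence and across linkers. Negative Z-scores can be read as non-binding.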
# [2] = biological target: Neu5Ac(a2-6)Gal(b1-3)GlcNAc(b1-3)[Gal(b1-4)GlcNAc(b1-6)]Gal(b1-4)Glc
# In short: as §1
# [3] = biological target: Neu5Ac(a2-6)Gal(b1-4)Glc
# In short: as §1
# [4] = biological target: Neu5Ac(a2-6)Gal(b1-4)GlcNAc
# In short: as §1
# [5] = biological target: Neu5Ac(a2-6)Gal(b1-4)GlcNAc(b1-2)Man
# In short: as §1
# [6] = biological target: Neu5Ac(a2-6)Gal(b1-4)GlcNAc(b1-2)Man(a1-3)Man(b1-4)GlcNAc(b1-4)GlcNAc
# In short: as §1
# [7] = biological target: Neu5Ac(a2-6)Gal(b1-4)GlcNAc(b1-2)Man(a1-3)[Gal(b1-4)GlcNAc(b1-2)Man(a1-6)]Man(b1-4)GlcNAc(b1-4)GlcNAc
# In short: as §1
# [8] = biological target: Neu5Ac(a2-6)Gal(b1-4)GlcNAc(b1-2)Man(a1-3)[GlcNAc(b1-2)Man(a1-6)]Man(b1-4)GlcNAc(b1-4)GlcNAc
# In short: as §1
# [9] = biological target: Neu5Ac(a2-6)Gal(b1-4)GlcNAc(b1-2)Man(a1-3)[GlcNAc(b1-2)Man(b1-4)GlcNAc(b1-2)Man(a1-6)]Man(b1-4)GlcNAc(b1-4)GlcNAc
# In short: as §1
# [10] = biological target: Neu5Ac(a2-6)Gal(b1-4)GlcNAc(b1-2)Man(a1-3)[GlcNAc(b1-4)][Neu5Ac(a2-6)Gal(b1-4)GlcNAc(b1-2)Man(a1-6)]Man(b1-4)GlcNAc(b1-4)GlcNAc
# In short: as §1
# [11] = biological target: Neu5Ac(a2-6)Gal(b1-4)GlcNAc(b1-2)Man(a1-3)[Man(a1-6)]Man(b1-4)GlcNAc(b1-4)GlcNAc
# In short: as §1
# [12] = biological target: Neu5Ac(a2-6)Gal(b1-4)GlcNAc(b1-2)Man(a1-3)[Neu5Ac(a2-3)Gal(b1-4)GlcNAc(b1-2)Man(a1-6)]Man(b1-4)GlcNAc(b1-4)GlcNAc
# In short: as §1
# [13] = biological target: Neu5Ac(a2-6)Gal(b1-4)GlcNAc(b1-2)Man(a1-3)[Neu5Ac(a2-6)Gal(b1-4)GlcNAc(b1-2)Man(a1-6)]Man(b1-4)GlcNAc(b1-4)GlcNAc
# In short: as §1
# [14] = biological target: Neu5Ac(a2-6)Gal(b1-4)GlcNAc(b1-2)Man(a1-3)[Neu5Ac(a2-6)Gal(b1-4)GlcNAc(b1-2)Man(a1-6)]Man(b1-4)GlcNAc(b1-4)[Fuc(a1-6)]GlcNAc
# In short: as §1
# [15] = biological target: Neu5Ac(a2-6)Gal(b1-4)GlcNAc(b1-2)Man(a1-6)Man(b1-4)GlcNAc(b1-4)GlcNAc
# In short: as §1
# [16] = biological target: Neu5Ac(a2-6)Gal(b1-4)GlcNAc(b1-2)Man(a1-6)[Gal(b1-4)GlcNAc(b1-2)Man(a1-3)]Man(b1-4)GlcNAc(b1-4)GlcNAc
# In short: as §1
# [17] = biological target: Neu5Ac(a2-6)Gal(b1-4)GlcNAc(b1-2)Man(a1-6)[GlcNAc(b1-2)Man(a1-3)]Man(b1-4)GlcNAc(b1-4)GlcNAc
# In short: as §1
# [18] = biological target: Neu5Ac(a2-6)Gal(b1-4)GlcNAc(b1-2)Man(a1-6)[Man(a1-3)]Man(b1-4)GlcNAc(b1-4)GlcNAc
# In short: as §1
# [19] = biological target: Neu5Ac(a2-6)Gal(b1-4)GlcNAc(b1-2)[Neu5Ac(a2-6)Gal(b1-4)GlcNAc(b1-4)]Man(a1-3)[GlcNAc(b1-4)][Neu5Ac(a2-6)Gal(b1-4)GlcNAc(b1-2)[Neu5Ac(a2-6)Gal(b1-4)GlcNAc(b1-6)]Man(a1-6)]Man(b1-4)GlcNAc(b1-4)GlcNAc
# In short: as §1
# [20] = biological target: Neu5Ac(a2-6)Gal(b1-4)GlcNAc(b1-2)[Neu5Ac(a2-6)Gal(b1-4)GlcNAc(b1-4)]Man(a1-3)[GlcNAc(b1-4)][Neu5Ac(a2-6)Gal(b1-4)GlcNAc(b1-4)Man(a1-6)]Man(b1-4)GlcNAc(b1-4)GlcNAc
# In short: as §1
# [21] = biological target: Neu5Ac(a2-6)Gal(b1-4)GlcNAc(b1-2)[Neu5Ac(a2-6)Gal(b1-4)GlcNAc(b1-6)]Man(a1-6)[Neu5Ac(a2-6)Gal(b1-4)GlcNAc(b1-2)Man(a1-3)][GlcNAc(b1-4)]Man(b1-4)GlcNAc(b1-4)GlcNAc
# In short: as §1
# [22] = biological target: Neu5Ac(a2-6)Gal(b1-4)GlcNAc(b1-3)Gal(b1-3)GlcNAc
# In short: as §1
# [23] = biological target: Neu5Ac(a2-6)Gal(b1-4)GlcNAc(b1-3)Gal(b1-4)GlcNAc
# In short: as §1
# [24] = biological target: Neu5Ac(a2-6)Gal(b1-4)GlcNAc(b1-3)Gal(b1-4)GlcNAc(b1-2)Man(a1-3)[Neu5Ac(a2-6)Gal(b1-4)GlcNAc(b1-3)Gal(b1-4)GlcNAc(b1-2)Man(a1-6)]GalNAc
# In short: as §1
# [25] = biological target: Neu5Ac(a2-6)Gal(b1-4)GlcNAc(b1-3)Gal(b1-4)GlcNAc(b1-3)Gal(b1-4)GlcNAc
# In short: as §1
# [26] = biological target: Neu5Ac(a2-6)Gal(b1-4)GlcNAc(b1-3)Gal(b1-4)GlcNAc(b1-3)Gal(b1-4)GlcNAc(b1-2)Man(a1-3)[Neu5Ac(a2-6)Gal(b1-4)GlcNAc(b1-3)Gal(b1-4)GlcNAc(b1-3)Gal(b1-4)GlcNAc(b1-2)Man(a1-6)]GalNAc
# In short: as §1
# [27] = biological target: Neu5Ac(a2-6)Gal(b1-4)GlcNAc(b1-3)Gal(b1-4)GlcNAc(b1-3)GalNAc
# In short: as §1
# [28] = biological target: Neu5Ac(a2-6)Gal(b1-4)GlcNAc(b1-3)Gal(b1-4)GlcNAc(b1-3)[Neu5Ac(a2-6)Gal(b1-4)GlcNAc(b1-3)Gal(b1-4)GlcNAc(b1-6)]GalNAc
# In short: as §1
# [29] = biological target: Neu5Ac(a2-6)Gal(b1-4)GlcNAc(b1-3)Gal(b1-4)GlcNAc(b1-6)[Gal(b1-3)]GalNAc
# In short: as §1
# [30] = biological target: Neu5Ac(a2-6)Gal(b1-4)GlcNAc(b1-3)Gal(b1-4)[Fuc(a1-3)]GlcNAc(b1-3)Gal(b1-4)[Fuc(a1-3)]GlcNAc
# In short: as §1
# [31] = biological target: Neu5Ac(a2-6)Gal(b1-4)GlcNAc(b1-3)GalNAc
# In short: as §1
# [32] = biological target: Neu5Ac(a2-6)Gal(b1-4)GlcNAc(b1-3)[Neu5Ac(a2-6)Gal(b1-4)GlcNAc(b1-6)]GalNAc
# In short: as §1
# [33] = biological target: Neu5Ac(a2-6)Gal(b1-4)GlcNAc(b1-6)GalNAc
# In short: as §1
# [34] = biological target: Neu5Ac(a2-6)Gal(b1-4)GlcNAc(b1-6)[Gal(b1-3)GlcNAc(b1-3)]Gal(b1-4)Glc
# In short: as §1
# [35] = biological target: Neu5Ac(a2-6)Gal(b1-4)GlcNAc(b1-6)[Gal(b1-3)]GalNAc
# In short: as §1
# [36] = biological target: Neu5Ac(a2-6)Gal(b1-4)GlcNAc6S
# In short: as §1
binder,measurement,setting,value
KISKRILTGKK [NK11 (Sus scrofa)],glycan array binding signal (z-score),[1],0.411
same,glycan array binding signal (z-score),[2],-0.989
same,glycan array binding signal (z-score),[3],-0.083
same,glycan array binding signal (z-score),[4],-0.251
same,glycan array binding signal (z-score),[5],0.52
same,glycan array binding signal (z-score),[6],0.127
same,glycan array binding signal (z-score),[7],0.065
same,glycan array binding signal (z-score),[8],-0.159
same,glycan array binding signal (z-score),[9],2.33
same,glycan array binding signal (z-score),[10],0.699
same,glycan array binding signal (z-score),[11],1.52
same,glycan array binding signal (z-score),[12],0.829
same,glycan array binding signal (z-score),[13],0.33
same,glycan array binding signal (z-score),[14],1.51
same,glycan array binding signal (z-score),[15],0.644
same,glycan array binding signal (z-score),[16],-0.315
same,glycan array binding signal (z-score),[17],-0.149
same,glycan array binding signal (z-score),[18],0.216
same,glycan array binding signal (z-score),[19],-1.88
same,glycan array binding signal (z-score),[20],0.035
same,glycan array binding signal (z-score),[21],0.24
same,glycan array binding signal (z-score),[22],0.145
same,glycan array binding signal (z-score),[23],-0.531
same,glycan array binding signal (z-score),[24],-1.13
same,glycan array binding signal (z-score),[25],0.163
same,glycan array binding signal (z-score),[26],0.477
same,glycan array binding signal (z-score),[27],-0.801
same,glycan array binding signal (z-score),[28],2.39
same,glycan array binding signal (z-score),[29],-0.128
same,glycan array binding signal (z-score),[30],-0.044
same,glycan array binding signal (z-score),[31],0.966
same,glycan array binding signal (z-score),[32],0.531
same,glycan array binding signal (z-score),[33],-0.246
same,glycan array binding signal (z-score),[34],-0.538
same,glycan array binding signal (z-score),[35],-0.327
same,glycan array binding signal (z-score),[36],0.729

# Some of the entries so far, tab-delimited.
binder	measurement	setting	value
KISKRILTGKK [NK11 (Sus scrofa)]	glycan array binding signal (z-score)	[3]	-0.083
same	glycan array binding signal (z-score)	[6]	0.127
same	glycan array binding signal (z-score)	[7]	0.065
same	glycan array binding signal (z-score)	[10]	0.699
same	glycan array binding signal (z-score)	[16]	-0.315
same	glycan array binding signal (z-score)	[21]	0.24
same	glycan array binding signal (z-score)	[24]	-1.13
same	glycan array binding signal (z-score)	[26]	0.477
same	glycan array binding signal (z-score)	[29]	-0.128
same	glycan array binding signal (z-score)	[34]	-0.538
